For at least one entry, the source does not settle the construct or the ends of the probe. Results from cells or extracts need not show a direct contact.

Protein sequences, listed by entry. Tags and fused reporters are not part of them. Lines headed by an entry give the natural chain unless they say otherwise; changes in a name come on top.
UniProt P78527, whole entry: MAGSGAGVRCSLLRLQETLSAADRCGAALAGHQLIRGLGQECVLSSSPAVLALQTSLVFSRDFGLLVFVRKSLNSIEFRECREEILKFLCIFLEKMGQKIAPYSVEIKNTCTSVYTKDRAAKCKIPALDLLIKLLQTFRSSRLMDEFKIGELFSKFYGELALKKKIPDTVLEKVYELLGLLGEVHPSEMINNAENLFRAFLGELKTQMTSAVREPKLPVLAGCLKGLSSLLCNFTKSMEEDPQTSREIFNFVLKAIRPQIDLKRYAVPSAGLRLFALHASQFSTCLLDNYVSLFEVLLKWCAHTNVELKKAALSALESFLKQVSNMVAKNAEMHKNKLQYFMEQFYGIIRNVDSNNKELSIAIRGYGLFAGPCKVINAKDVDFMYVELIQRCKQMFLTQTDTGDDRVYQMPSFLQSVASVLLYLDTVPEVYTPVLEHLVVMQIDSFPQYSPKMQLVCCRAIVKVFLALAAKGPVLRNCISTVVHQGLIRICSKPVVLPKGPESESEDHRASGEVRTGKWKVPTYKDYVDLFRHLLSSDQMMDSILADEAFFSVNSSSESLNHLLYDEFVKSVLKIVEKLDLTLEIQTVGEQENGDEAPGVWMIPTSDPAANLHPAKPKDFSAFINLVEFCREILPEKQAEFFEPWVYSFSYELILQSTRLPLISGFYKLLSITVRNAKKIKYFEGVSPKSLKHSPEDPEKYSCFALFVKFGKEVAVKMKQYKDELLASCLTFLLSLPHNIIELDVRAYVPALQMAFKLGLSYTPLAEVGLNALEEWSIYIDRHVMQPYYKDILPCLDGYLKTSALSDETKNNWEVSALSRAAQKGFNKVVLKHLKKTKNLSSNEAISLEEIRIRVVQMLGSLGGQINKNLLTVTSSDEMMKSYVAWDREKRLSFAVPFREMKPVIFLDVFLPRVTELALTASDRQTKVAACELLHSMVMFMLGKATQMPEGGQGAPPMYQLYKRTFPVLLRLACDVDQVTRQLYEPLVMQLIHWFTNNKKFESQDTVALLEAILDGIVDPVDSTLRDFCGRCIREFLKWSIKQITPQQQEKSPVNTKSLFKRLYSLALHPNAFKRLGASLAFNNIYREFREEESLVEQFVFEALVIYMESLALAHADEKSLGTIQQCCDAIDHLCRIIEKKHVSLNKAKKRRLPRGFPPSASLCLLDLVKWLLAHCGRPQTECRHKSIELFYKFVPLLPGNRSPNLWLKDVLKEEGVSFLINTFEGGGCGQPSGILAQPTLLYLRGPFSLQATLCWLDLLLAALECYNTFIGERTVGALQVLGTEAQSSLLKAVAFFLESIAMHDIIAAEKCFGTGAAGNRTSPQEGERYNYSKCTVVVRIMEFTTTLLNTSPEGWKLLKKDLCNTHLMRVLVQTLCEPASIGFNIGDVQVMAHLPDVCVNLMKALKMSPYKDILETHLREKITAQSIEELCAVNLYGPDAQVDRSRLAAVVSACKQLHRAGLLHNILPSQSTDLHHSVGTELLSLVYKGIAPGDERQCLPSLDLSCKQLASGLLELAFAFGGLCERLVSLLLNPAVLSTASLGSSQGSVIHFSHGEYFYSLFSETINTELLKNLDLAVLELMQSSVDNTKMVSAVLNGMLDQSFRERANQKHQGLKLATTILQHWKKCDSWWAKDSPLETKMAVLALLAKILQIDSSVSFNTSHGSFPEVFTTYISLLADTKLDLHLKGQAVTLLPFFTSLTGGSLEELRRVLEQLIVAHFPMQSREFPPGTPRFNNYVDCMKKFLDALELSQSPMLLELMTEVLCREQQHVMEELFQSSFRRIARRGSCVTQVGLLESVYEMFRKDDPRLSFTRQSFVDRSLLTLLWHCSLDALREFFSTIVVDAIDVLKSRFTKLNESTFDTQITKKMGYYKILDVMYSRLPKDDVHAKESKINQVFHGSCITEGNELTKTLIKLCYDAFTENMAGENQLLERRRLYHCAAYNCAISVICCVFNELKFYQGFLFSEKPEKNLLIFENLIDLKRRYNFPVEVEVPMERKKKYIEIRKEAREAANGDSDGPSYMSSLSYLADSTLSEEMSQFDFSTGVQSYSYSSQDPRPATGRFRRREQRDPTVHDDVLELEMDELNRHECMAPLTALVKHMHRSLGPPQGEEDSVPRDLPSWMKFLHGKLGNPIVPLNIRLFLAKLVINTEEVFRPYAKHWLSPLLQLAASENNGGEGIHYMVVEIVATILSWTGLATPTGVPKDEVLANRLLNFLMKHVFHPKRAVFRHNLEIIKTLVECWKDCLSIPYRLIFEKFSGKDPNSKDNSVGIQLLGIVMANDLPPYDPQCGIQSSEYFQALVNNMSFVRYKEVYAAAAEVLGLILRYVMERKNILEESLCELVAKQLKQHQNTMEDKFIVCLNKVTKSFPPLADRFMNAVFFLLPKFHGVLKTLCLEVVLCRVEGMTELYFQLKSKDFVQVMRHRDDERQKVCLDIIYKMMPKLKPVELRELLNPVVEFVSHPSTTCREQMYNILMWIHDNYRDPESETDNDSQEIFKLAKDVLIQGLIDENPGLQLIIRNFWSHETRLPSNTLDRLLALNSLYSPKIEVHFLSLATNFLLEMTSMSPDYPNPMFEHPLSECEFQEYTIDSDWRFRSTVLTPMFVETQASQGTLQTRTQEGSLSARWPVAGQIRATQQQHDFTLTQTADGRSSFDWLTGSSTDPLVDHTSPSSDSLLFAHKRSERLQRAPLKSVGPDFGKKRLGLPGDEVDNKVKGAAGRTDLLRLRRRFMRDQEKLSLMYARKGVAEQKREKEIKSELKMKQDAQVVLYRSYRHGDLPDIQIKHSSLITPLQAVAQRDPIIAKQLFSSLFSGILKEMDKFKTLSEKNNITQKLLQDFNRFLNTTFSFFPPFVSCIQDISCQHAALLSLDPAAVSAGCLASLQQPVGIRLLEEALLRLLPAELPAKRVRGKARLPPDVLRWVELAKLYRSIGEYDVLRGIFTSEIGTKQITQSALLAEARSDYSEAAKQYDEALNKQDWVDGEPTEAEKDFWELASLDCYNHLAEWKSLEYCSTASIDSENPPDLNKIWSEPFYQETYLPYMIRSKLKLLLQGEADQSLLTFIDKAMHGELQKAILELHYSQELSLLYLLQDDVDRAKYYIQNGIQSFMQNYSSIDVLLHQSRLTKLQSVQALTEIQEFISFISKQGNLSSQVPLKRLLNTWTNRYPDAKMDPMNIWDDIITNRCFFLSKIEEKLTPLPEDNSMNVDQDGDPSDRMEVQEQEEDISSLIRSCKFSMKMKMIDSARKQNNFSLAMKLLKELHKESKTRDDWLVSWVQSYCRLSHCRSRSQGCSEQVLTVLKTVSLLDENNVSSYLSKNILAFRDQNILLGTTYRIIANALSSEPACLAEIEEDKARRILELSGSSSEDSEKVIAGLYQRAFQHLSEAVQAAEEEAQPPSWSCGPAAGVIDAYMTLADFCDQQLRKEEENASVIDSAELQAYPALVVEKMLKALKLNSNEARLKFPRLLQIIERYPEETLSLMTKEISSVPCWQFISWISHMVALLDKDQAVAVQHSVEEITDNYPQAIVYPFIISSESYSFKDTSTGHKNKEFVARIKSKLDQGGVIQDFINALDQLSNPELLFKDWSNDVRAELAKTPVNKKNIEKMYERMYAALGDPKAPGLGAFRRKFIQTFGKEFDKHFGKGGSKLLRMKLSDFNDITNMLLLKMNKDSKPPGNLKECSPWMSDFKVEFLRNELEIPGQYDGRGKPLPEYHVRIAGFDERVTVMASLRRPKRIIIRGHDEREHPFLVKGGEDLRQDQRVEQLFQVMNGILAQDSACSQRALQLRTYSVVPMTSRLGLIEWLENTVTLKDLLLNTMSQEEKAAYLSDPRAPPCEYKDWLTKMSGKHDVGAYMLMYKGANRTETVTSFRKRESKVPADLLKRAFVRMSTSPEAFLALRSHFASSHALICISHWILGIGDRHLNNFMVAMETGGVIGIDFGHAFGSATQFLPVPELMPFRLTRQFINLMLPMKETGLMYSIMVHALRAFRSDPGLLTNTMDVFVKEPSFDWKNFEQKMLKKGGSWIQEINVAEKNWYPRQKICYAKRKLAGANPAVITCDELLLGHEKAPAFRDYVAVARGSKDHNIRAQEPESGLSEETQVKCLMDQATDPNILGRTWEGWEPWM
UniProt P12956: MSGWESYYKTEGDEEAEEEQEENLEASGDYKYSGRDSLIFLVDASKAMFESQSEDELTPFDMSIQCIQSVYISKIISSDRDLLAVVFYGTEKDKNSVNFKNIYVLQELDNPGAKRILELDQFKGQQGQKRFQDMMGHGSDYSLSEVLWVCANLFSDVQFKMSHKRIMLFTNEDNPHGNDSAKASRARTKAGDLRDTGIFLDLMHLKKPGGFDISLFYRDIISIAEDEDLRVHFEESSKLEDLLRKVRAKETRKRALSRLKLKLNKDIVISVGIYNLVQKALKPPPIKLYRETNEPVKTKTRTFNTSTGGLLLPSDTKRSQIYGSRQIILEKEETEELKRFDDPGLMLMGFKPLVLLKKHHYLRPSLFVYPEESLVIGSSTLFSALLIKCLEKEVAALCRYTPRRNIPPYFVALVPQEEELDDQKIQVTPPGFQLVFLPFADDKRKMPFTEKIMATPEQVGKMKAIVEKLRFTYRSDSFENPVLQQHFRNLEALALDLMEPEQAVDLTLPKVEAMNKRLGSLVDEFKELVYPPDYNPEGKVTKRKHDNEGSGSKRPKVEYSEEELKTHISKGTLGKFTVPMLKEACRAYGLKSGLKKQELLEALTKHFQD

Data set [1] addresses DNA-PKcs (endogenous) (UniProt P78527). Kind of data set: pull-down, immunoblot. The conditions noted are these: DNA transfected into cells, empty vector, likely via Ku; protein in an extract; label: 3' biotin.
For data set [2], the target named is Ku70 (endogenous) (UniProt P12956). Briefly: pull-down, immunoblot. The settings on record: DNA transfected into cells, empty vector; protein in an extract; label: 3' biotin. In general terms: In western blotting, separated proteins are transferred to a membrane and probed.

For “TACAGATCTACTAGTGATCTATGACTGATCTGTACATGATCTACA (double strand) [biotinylated ISD DNA]”, the binding result in data set [1] and in data set [2] was “binds” each time.

These data come from paper PMC3789764.
